Test system: E6B08_RS28125
Assay: ITC titration of E6B08_RS28125 with L-ornithine at different pH
Assay type: binding, P. putida 1290

NCCC[C@H](N)C(=O)O [L-ornithine]
width of pH range of ligand recognition: 8.0 pH units
pH optimum (25°C): 9.0
pH range of binding (25°C, defined as binding with a KD below 1 mM): 3.0-11.0

Reference: publication PMC9600550, “The pH Robustness of Bacterial Sensing” (mBio, 2022)
